Laboratory results: patent publication US20100189725A1

Sequences of proteins named here, by UniProt entry; tags and fusion partners are left off.
UniProt P02340: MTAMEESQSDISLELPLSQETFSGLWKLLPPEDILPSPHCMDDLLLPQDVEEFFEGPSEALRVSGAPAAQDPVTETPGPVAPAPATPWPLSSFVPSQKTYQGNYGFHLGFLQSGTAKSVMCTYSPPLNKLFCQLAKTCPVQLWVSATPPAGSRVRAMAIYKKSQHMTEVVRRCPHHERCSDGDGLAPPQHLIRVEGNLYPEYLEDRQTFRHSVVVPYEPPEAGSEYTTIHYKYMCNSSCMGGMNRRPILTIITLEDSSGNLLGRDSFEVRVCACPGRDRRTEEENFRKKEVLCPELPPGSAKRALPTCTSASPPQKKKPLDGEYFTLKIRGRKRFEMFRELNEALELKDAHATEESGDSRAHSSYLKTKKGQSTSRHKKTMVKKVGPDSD
UniProt P70399: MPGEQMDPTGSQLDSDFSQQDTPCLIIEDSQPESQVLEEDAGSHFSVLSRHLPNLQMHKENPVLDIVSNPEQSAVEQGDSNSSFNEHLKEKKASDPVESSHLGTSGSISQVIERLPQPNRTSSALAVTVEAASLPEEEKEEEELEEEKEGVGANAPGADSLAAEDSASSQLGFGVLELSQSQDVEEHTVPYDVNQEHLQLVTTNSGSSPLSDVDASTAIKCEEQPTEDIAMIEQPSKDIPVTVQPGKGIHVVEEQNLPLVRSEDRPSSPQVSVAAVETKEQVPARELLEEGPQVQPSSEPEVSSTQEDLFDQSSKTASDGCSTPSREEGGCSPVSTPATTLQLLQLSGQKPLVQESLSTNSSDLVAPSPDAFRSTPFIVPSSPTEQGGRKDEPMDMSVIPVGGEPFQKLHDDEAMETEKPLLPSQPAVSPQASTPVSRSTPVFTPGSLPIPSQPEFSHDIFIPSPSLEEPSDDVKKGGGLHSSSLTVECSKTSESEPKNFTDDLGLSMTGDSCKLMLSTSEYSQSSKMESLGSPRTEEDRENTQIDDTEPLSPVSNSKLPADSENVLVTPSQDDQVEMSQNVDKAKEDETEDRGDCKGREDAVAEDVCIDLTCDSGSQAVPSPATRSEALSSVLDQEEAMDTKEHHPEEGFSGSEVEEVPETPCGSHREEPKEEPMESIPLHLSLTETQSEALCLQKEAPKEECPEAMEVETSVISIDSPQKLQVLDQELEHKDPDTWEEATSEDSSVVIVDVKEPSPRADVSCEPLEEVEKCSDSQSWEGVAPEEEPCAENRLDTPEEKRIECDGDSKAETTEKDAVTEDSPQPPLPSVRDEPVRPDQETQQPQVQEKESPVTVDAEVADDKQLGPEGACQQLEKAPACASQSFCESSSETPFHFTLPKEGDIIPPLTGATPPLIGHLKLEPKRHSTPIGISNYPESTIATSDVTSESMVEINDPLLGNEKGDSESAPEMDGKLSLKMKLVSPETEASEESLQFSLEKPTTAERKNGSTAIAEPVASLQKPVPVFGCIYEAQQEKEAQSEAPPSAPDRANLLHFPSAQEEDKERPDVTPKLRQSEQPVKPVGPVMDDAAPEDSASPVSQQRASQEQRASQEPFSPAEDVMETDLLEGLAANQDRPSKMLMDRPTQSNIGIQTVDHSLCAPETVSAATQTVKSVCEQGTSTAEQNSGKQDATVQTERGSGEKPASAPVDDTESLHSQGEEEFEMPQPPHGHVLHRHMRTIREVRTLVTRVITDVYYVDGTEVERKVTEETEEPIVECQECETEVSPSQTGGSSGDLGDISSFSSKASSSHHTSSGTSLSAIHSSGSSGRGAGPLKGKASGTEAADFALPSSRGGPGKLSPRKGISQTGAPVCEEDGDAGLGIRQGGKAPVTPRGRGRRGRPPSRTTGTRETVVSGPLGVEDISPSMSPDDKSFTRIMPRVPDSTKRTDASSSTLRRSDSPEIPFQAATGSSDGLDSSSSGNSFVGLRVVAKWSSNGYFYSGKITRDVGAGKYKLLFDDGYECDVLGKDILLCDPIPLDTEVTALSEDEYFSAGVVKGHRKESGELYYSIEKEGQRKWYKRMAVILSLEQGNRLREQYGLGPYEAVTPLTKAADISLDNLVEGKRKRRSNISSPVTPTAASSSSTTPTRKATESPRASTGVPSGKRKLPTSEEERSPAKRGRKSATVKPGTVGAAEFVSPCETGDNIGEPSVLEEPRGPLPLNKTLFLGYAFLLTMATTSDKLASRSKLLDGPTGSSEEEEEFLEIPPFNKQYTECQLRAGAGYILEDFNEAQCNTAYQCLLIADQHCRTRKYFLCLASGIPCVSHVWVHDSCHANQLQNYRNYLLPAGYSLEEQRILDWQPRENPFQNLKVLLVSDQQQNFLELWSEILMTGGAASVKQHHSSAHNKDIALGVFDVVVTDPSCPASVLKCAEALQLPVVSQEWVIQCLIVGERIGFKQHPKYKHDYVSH

Target: Tandem Affinity Purification (TAP)-tagged p53 (TAP-p53), mouse (mouse) (UniProt P02340)
Assay: tandem affinity purification of TAP-p53 from doxorubicin-treated mES cells, SDS-PAGE, mass spectrometry

binding: binds
Substance: p53-binding protein 1, mouse (from UniProt P70399 1-1969)

No constants are given. Whether binding was seen depends on the method and setting. Binding seen in cells or lysates may run through a third protein. Here binding means that the protein was enriched with, or labelled near, the bait; the list need not be complete.
